# Test results from the supplement of paper PMC8728848.
# This is one part of the list.
# B1: EUL D1A second (Oryza sativa) (protein)
# chain: GAATACTIGGVPVHTVRVFSAAGEDYCLTVRNGTACLAPKNPRDDYQHWIKDMRHSNKIRDEEGYPAFALVNKVTGEAIKHSTGQGHPVKLVPYNPEYQDESVLWTESKDVGKGFRCIRMVNNIYLNFDAFHGDKDHGGIHDGTEIVLWKWCEGDNQRWKILPWILEQKLISEEDLNSAVDHHHHHH
# Experiments:
# Experiment in all cases: glycan array binding signal (z-score within array); higher = stronger binding
# Conditions in all cases: glycan notation: IUPAC condensed, linker removed
# [1] = target: GalNAc(b1-4)GlcNAc(b1-2)Man
# Method in brief: (§1)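 The binding signal is a Z-score computed within each array and averaged over linkers. Arrays of the same protein sequence at different concentrations or buffers were also averaged together. Data originate from 3228 arrays in the Consortium for Functional Glycomics database, kept only where the protein sequence was available.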
# [2] = target: GalNAc(b1-4)GlcNAc(b1-2)Man(a1-3)[GalNAc(b1-4)GlcNAc(b1-2)Man(a1-6)]Man(b1-4)GlcNAc(b1-4)GlcNAc
# Method in brief: as §1
# [3] = target: GalNAc(b1-4)GlcNAc(b1-3)GalNAc(b1-4)GlcNAc
# Method in brief: as §1
# GalNAc(b1-4)GlcNAc6S = target: GalNAc(b1-4)GlcNAc6S
# Method in brief: as §1
# GalNAc(b1-6)GalNAc = target: GalNAc(b1-6)GalNAc
# Method in brief: as §1
# GalNAc3S(b1-4)GlcNAc = target: GalNAc3S(b1-4)GlcNAc
# Method in brief: as §1
# GalNAc3S(b1-4)GlcNAc3S = target: GalNAc3S(b1-4)GlcNAc3S
# Method in brief: as §1
# [4] = target: GalNAc3S(b1-4)[Fuc(a1-3)]GlcNAc
# Method in brief: as §1
# GalNAc4S6S(b1-4)GlcNAc = target: GalNAc4S6S(b1-4)GlcNAc
# Method in brief: as §1
# GalNAc6S(b1-4)GlcNAc = target: GalNAc6S(b1-4)GlcNAc
# Method in brief: as §1
# Glc(a1-4)Glc = target: Glc(a1-4)Glc
# Method in brief: as §1
# [5] = target: Glc(a1-4)Glc(a1-4)Glc(a1-4)Glc
# Method in brief: as §1
# Glc(a1-6)Glc(a1-6)Glc = target: Glc(a1-6)Glc(a1-6)Glc
# Method in brief: as §1
# [6] = target: Glc(a1-6)Glc(a1-6)Glc(a1-6)Glc
# Method in brief: as §1
# Glc(b1-4)Glc = target: Glc(b1-4)Glc
# Method in brief: as §1
# Glc(b1-6)Glc = target: Glc(b1-6)Glc
# Method in brief: as §1
# GlcA(b1-3)Gal = target: GlcA(b1-3)Gal
# Method in brief: as §1
# GlcA(b1-3)GlcNAc = target: GlcA(b1-3)GlcNAc
# Method in brief: as §1
# GlcA(b1-6)Gal = target: GlcA(b1-6)Gal
# Method in brief: as §1
# [7] = target: GlcA3S(b1-3)Gal(b1-4)GlcNAc(b1-2)Man
# Method in brief: as §1
# [8] = target: GlcA3S(b1-3)Gal(b1-4)GlcNAc(b1-3)Gal(b1-4)Glc
# Method in brief: as §1
# [9] = target: GlcNAc(a1-3)Gal(b1-4)GlcNAc
# Method in brief: as §1
# [10] = target: GlcNAc(a1-4)Gal(b1-3)GlcNAc
# Method in brief: as §1
# [11] = target: GlcNAc(a1-4)Gal(b1-4)GalNAc
# Method in brief: as §1
# [12] = target: GlcNAc(a1-4)Gal(b1-4)GlcNAc
# Method in brief: as §1
# [13] = target: GlcNAc(a1-4)Gal(b1-4)GlcNAc(b1-3)Gal(b1-4)Glc
# Method in brief: as §1
# [14] = target: GlcNAc(a1-4)Gal(b1-4)GlcNAc(b1-3)Gal(b1-4)GlcNAc
# Method in brief: as §1
# [15] = target: GlcNAc(a1-4)Gal(b1-4)GlcNAc(b1-3)Gal(b1-4)GlcNAc(b1-3)Gal(b1-4)GlcNAc
# Method in brief: as §1
# [16] = target: GlcNAc(a1-4)Gal(b1-4)GlcNAc(b1-3)Gal(b1-4)[Fuc(a1-3)]GlcNAc(b1-3)Gal(b1-4)[Fuc(a1-3)]GlcNAc
# Method in brief: as §1
# [17] = target: GlcNAc(a1-6)Gal(b1-4)GlcNAc
# Method in brief: as §1
# [18] = target: GlcNAc(b1-2)Gal(b1-3)GalNAc
# Method in brief: as §1
# [19] = target: GlcNAc(b1-2)Man(a1-3)[GlcNAc(b1-2)Man(a1-6)]Man(b1-4)GlcNAc(b1-4)GlcNAc
# Method in brief: as §1
# [20] = target: GlcNAc(b1-2)Man(a1-3)[GlcNAc(b1-2)Man(a1-6)]Man(b1-4)GlcNAc(b1-4)[Fuc(a1-6)]GlcNAc
# Method in brief: as §1
# [21] = target: GlcNAc(b1-2)Man(a1-3)[GlcNAc(b1-4)][GlcNAc(b1-2)Man(a1-6)]Man(b1-4)GlcNAc(b1-4)GlcNAc
# Method in brief: as §1
# [22] = target: GlcNAc(b1-2)Man(a1-3)[GlcNAc(b1-4)][GlcNAc(b1-2)Man(a1-6)]Man(b1-4)GlcNAc(b1-4)[Fuc(a1-6)]GlcNAc
# Method in brief: as §1
# [23] = target: GlcNAc(b1-2)[GlcNAc(b1-4)]Man(a1-3)[GlcNAc(b1-2)Man(a1-6)]Man(b1-4)GlcNAc(b1-4)GlcNAc
# Method in brief: as §1
# [24] = target: GlcNAc(b1-2)[GlcNAc(b1-4)]Man(a1-3)[GlcNAc(b1-4)][GlcNAc(b1-2)Man(a1-6)]Man(b1-4)GlcNAc(b1-4)GlcNAc
# Method in brief: as §1
# [25] = target: GlcNAc(b1-2)[GlcNAc(b1-4)]Man(a1-3)[GlcNAc(b1-4)][GlcNAc(b1-2)[GlcNAc(b1-6)]Man(a1-6)]Man(b1-4)GlcNAc(b1-4)GlcNAc
# Method in brief: as §1
# [26] = target: GlcNAc(b1-2)[GlcNAc(b1-4)]Man(a1-3)[GlcNAc(b1-4)][GlcNAc(b1-2)[GlcNAc(b1-6)]Man(a1-6)]Man(b1-4)GlcNAc(b1-4)[Fuc(a1-6)]GlcNAc
# Method in brief: as §1
# [27] = target: GlcNAc(b1-2)[GlcNAc(b1-6)]Man(a1-6)[GlcNAc(b1-2)Man(a1-3)]Man(b1-4)GlcNAc(b1-4)GlcNAc
# Method in brief: as §1
# [28] = target: GlcNAc(b1-2)[GlcNAc(b1-6)]Man(a1-6)[GlcNAc(b1-2)Man(a1-3)]Man(b1-4)GlcNAc(b1-4)[Fuc(a1-6)]GlcNAc
# Method in brief: as §1
# [29] = target: GlcNAc(b1-2)[GlcNAc(b1-6)]Man(a1-6)[GlcNAc(b1-4)][GlcNAc(b1-2)Man(a1-3)]Man(b1-4)GlcNAc(b1-4)GlcNAc
# Method in brief: as §1
# GlcNAc(b1-3)Fuc = target: GlcNAc(b1-3)Fuc
# Method in brief: as §1
# GlcNAc(b1-3)Gal = target: GlcNAc(b1-3)Gal
# Method in brief: as §1
# [30] = target: GlcNAc(b1-3)Gal(b1-3)GalNAc
# Method in brief: as §1
binder,measurement,setting,value
B1,glycan array binding signal (z-score),[1],-0.619
same,glycan array binding signal (z-score),[2],0.637
same,glycan array binding signal (z-score),[3],0.369
same,glycan array binding signal (z-score),GalNAc(b1-4)GlcNAc6S,0.542
same,glycan array binding signal (z-score),GalNAc(b1-6)GalNAc,-0.616
same,glycan array binding signal (z-score),GalNAc3S(b1-4)GlcNAc,-0.821
same,glycan array binding signal (z-score),GalNAc3S(b1-4)GlcNAc3S,-0.9
same,glycan array binding signal (z-score),[4],0.681
same,glycan array binding signal (z-score),GalNAc4S6S(b1-4)GlcNAc,2.11
same,glycan array binding signal (z-score),GalNAc6S(b1-4)GlcNAc,-0.272
same,glycan array binding signal (z-score),Glc(a1-4)Glc,0.317
same,glycan array binding signal (z-score),[5],-0.381
same,glycan array binding signal (z-score),Glc(a1-6)Glc(a1-6)Glc,0.491
same,glycan array binding signal (z-score),[6],1.62
same,glycan array binding signal (z-score),Glc(b1-4)Glc,-0.487
same,glycan array binding signal (z-score),Glc(b1-6)Glc,-0.895
same,glycan array binding signal (z-score),GlcA(b1-3)Gal,0.806
same,glycan array binding signal (z-score),GlcA(b1-3)GlcNAc,0.189
same,glycan array binding signal (z-score),GlcA(b1-6)Gal,0.199
same,glycan array binding signal (z-score),[7],-1.01
same,glycan array binding signal (z-score),[8],-1.27
same,glycan array binding signal (z-score),[9],-0.059
same,glycan array binding signal (z-score),[10],-0.003
same,glycan array binding signal (z-score),[11],0.11
same,glycan array binding signal (z-score),[12],-0.37
same,glycan array binding signal (z-score),[13],-0.602
same,glycan array binding signal (z-score),[14],0.723
same,glycan array binding signal (z-score),[15],0.272
same,glycan array binding signal (z-score),[16],2.44
same,glycan array binding signal (z-score),[17],-0.904
same,glycan array binding signal (z-score),[18],-0.221
same,glycan array binding signal (z-score),[19],-0.578
same,glycan array binding signal (z-score),[20],-0.631
same,glycan array binding signal (z-score),[21],0.9
same,glycan array binding signal (z-score),[22],-0.831
same,glycan array binding signal (z-score),[23],1
same,glycan array binding signal (z-score),[24],-0.669
same,glycan array binding signal (z-score),[25],0.522
same,glycan array binding signal (z-score),[26],-0.431
same,glycan array binding signal (z-score),[27],0.179
same,glycan array binding signal (z-score),[28],-0.879
same,glycan array binding signal (z-score),[29],-0.303
same,glycan array binding signal (z-score),GlcNAc(b1-3)Fuc,0.458
same,glycan array binding signal (z-score),GlcNAc(b1-3)Gal,-0.812
same,glycan array binding signal (z-score),[30],0.185

# Some of the entries so far, bar-delimited:
binder | measurement | setting | value
B1 | glycan array binding signal (z-score) | [3] | 0.369
same | glycan array binding signal (z-score) | GalNAc3S(b1-4)GlcNAc | -0.821
same | glycan array binding signal (z-score) | Glc(a1-4)Glc | 0.317
same | glycan array binding signal (z-score) | Glc(a1-6)Glc(a1-6)Glc | 0.491
same | glycan array binding signal (z-score) | GlcA(b1-3)Gal | 0.806
same | glycan array binding signal (z-score) | [10] | -0.003
same | glycan array binding signal (z-score) | [16] | 2.44
same | glycan array binding signal (z-score) | [18] | -0.221
same | glycan array binding signal (z-score) | [19] | -0.578
same | glycan array binding signal (z-score) | [26] | -0.431
same | glycan array binding signal (z-score) | [27] | 0.179
same | glycan array binding signal (z-score) | [28] | -0.879
